Measured data: PubChem BioAssay AID743454 (Peter MacCallum Cancer Centre, 2014)
Aim: 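Knock-downs lowering viability or raising caspase 3/7 activity in vorinostat-treated resistant cells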 (primary screen). Cells: human HCT116-VR colon cancer cells, selected for vorinostat resistance. Knock-down reagent: siRNA pool against human genes, 40 nM siRNA pool. Time to read-out: vorinostat for 24 h, read-out about 72 h after transfection. Treatment: vorinostat at 2.5 µM final. Detection: 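Two measures, CellTiter-Fluor viability and luminescent caspase 3/7 activity, each as fold change against same-plate mock wells, mean of duplicates, then screen-wide robust z-score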. Reading the numbers: viability robust z-score: higher = more viable cells than screen typical; caspase robust z-score: higher = more caspase 3/7 activity than screen typical. Active means: 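a knock-down is a hit when classed RV1 or RV2 for lowered viability, or CA1 or CA2 for caspase activation; those lethal without drug were dropped; hits were retested singly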.
In all, the deposit lists about 18,000 reagents; shown is a random part of them. 450 of them (2.5%) were called active. 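Single biological run; no consistent viability z cut-off exists, so the class columns, not z-scores, define the calls.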 Entries without a mark were called inactive.

KEL (GeneID 3792) | viability hit class = no change; caspase hit class = no change; viability robust z-score = 0.3; caspase robust z-score = 1.17
PCDHA3 (GeneID 56145) | viability hit class = no change; caspase hit class = no change; viability robust z-score = 0.67; caspase robust z-score = -0.56
HRC (GeneID 3270) | viability hit class = no change; caspase hit class = no change; viability robust z-score = -0.33; caspase robust z-score = 3.89
SCTR (GeneID 6344) | viability hit class = no change; caspase hit class = no change; viability robust z-score = -1.12; caspase robust z-score = -0.27
FAM89A (GeneID 375061) | viability hit class = no change; caspase hit class = no change; viability robust z-score = -2.08; caspase robust z-score = 0.76
TSLIG3B (GeneID 283742) | viability hit class = no change; caspase hit class = no change; viability robust z-score = 0.81; caspase robust z-score = 0.56
CEP112 (GeneID 201134) | viability hit class = no change; caspase hit class = no change; viability robust z-score = 0.75; caspase robust z-score = -0.3
HLA-E (GeneID 3133) | viability hit class = no change; caspase hit class = no change; viability robust z-score = -1.84; caspase robust z-score = 2.83
HBE1 (GeneID 3046) | viability hit class = no change; caspase hit class = no change; viability robust z-score = -0.43; caspase robust z-score = 0.11
EIF3B (GeneID 8662) | viability hit class = no change; caspase hit class = no change; viability robust z-score = -2.76; caspase robust z-score = -1.15
PEX5L (GeneID 51555) | viability hit class = no change; caspase hit class = no change; viability robust z-score = -0.57; caspase robust z-score = 0.57
CTBS (GeneID 1486) | viability hit class = no change; caspase hit class = no change; viability robust z-score = -1.4; caspase robust z-score = 0.02
HTR2A (GeneID 3356) | viability hit class = no change; caspase hit class = no change; viability robust z-score = 1.07; caspase robust z-score = 0.93
DBT (GeneID 1629) | viability hit class = no change; caspase hit class = no change; viability robust z-score = -0.26; caspase robust z-score = -0.84

Ordered by “caspase robust z-score” (descending): 2 of the entries above
HLA-E (GeneID 3133) | viability hit class = no change; caspase hit class = no change; viability robust z-score = -1.84; caspase robust z-score = 2.83
CEP112 (GeneID 201134) | viability hit class = no change; caspase hit class = no change; viability robust z-score = 0.75; caspase robust z-score = -0.3
